Data reported in patent publication US4681890A, “3,4-dihydrobenzopyran compounds and pharmaceutical composition containing the same” (Kuraray Co., Ltd., priority 1984, dated 1987).
At least one compound was matched to its structure with a doubt left. Some entries repeat one wording, which the source may state once for all of them.

Columns and labels:
[1] = system: Total cholesterol in serum (hypercholesterolemic mice); assay: Blood cholesterol lowering activity (total serum cholesterol in mice given a lipid emulsion); assay type: in vivo, dd-Male mice; settings: relative to Nicomol
Protocol: dd-Male mice weighing about 25 g (one group: 10 mice) were allowed to fast for 12 hours, and thereto was orally administered a lipid emulsion (olive oil 32.7%, cholesterol 2.5%, sodium cholate 1.8%, sucrose 41.9%, and water 21.1%) in a dose of 25.5 ml/kg. A suspension of a test compound in gum arabic was orally administered to the mice twice, i.e. immediately after and […] after the administration of the lipid emulsion. 17 hours after the second administration of test compound, blood was collected from descending abdominal aorta under ether anesthesia. Total cholesterol in serum was measured by COD-p-chlorophenol colorimetry. As a reference compound, there was used Nicomol (chemical name: 2,2,6,6-tetrakis(nicotinoyloxymethyl)cyclohexanol) which is commercially available anticholesteremic agent.
Serum cholesterol values at 17 hours after the second administration of test compound were compared with the serum cholesterol values in normal mice and hypercholesterolemic mice.

[2] = system: ornithine carbamyl transferase (OCT) in serum, ethanol-administered mice; assay: Activity against alcoholic hepatic disease (serum OCT activity); assay type: in vivo, dd-Male mice; settings: in words
Protocol: dd-Male mice (4 weeks age, weighing about 15 g, one group: 10 mice) were fed with a hyperlipid feed [composition: cholesterol 1.0%, sodium cholate 0.5%, butter 5.0%, sucrose 30.0%, casein 10.0%, and M powder feed (manufactured by Oriental Yeast Co., Ltd., Japan) 53.5%] for 4 weeks. During the feeding, a suspension of a test compound in gum arabic and a 20% aqueous ethanol (15 ml/kg) were orally administered twice a day (morning and evening). After 4 weeks, mice were subjected to laparotomy under ether anesthesia, and blood was collected from the descending abdominal aorta. The blood thus collected was centrifuged at 3,000 r.p.m. for 15 minutes, and the enzymatic activity of ornithine carbamyl transferase (OCT) was measured with OCT-Test Wako (manufactured by Wako Pure Chemical Industries, Ltd., Japan).
The OCT activity in serum of mice which were administered test compounds was compared with the OCT activity in serum of normal mice and in control mice which were administered only 20% aqueous ethanol.

[3] = system: glutamic oxaloacetic transaminase (GOT) in serum, CCl4-administered mice; assay: Activity against carbon tetrachloride-induced hepatic disease (serum GOT); assay type: in vivo, dd male mice; settings: in words
Protocol: (§1) To dd male mice weighing 18-20 g (one group: 10 mice) was orally administered a suspension of a test compound in gum arabic twice or three times per day. On the third day, 1% carbon tetrachloride (v/v % in olive oil) was subcutaneously injected at the back of the mice in a dose of 2 ml/kg one hour after the last administration of test compound. 19 hours after the injection of CCl4, a suspendion of a test compound in gum arabic was orally administerd. After one hour, the mice were subjected to laparotomy under ether anesthesia and blood was collected from the descending abdominal aorta. The blood thus collected was centrifuged at 3,000 r.p.m. for 15 minutes. The enzymatic activities of glutamic oxaloacetic transaminase (GOT) and glutamic pyruvic transaminase (GPT) in serum were measured with S.TA-Test Wako (manufactured by Wako Pure Chemical Industries, Ltd., Japan).
(§2) The activities of GOT and GPT in serum of the mice which were administered test compounds were compared with the GOT and GPT activities in serum of normal mice and 1% CCl4 (v/v % in olive oil)-administered mice.

[4] = system: glutamic pyruvic transaminase (GPT) in serum, CCl4-administered mice; assay: Activity against carbon tetrachloride-induced hepatic disease (serum GPT); assay type: in vivo, dd male mice; settings: in words
Protocol: as §1, §2

| SMILES | cholesterol lowering activity compared with Nicomol [1] | inhibition of increase of OCT activity induced by alcohol [2] | inhibition of increase of GOT activity induced by CCl4 [3] | inhibition of increase of GPT activity induced by CCl4 [4] |
| --- | --- | --- | --- | --- |
| Cc1c(C)c2c(c(C)c1OC(=O)c1cccnc1)CCC(C)(CCCOC(=O)c1cccnc1)O2 (stereo not drawn) [Compound 6, 3,4-dihydro-2-nicotinoyloxypropyl-2,5,7,8-tetramethyl-2H-benzopyran-6-yl nicotinate] | about two times higher cholesterol lowering activity than Nicomol | excellent inhibition of increase of OCT activity induced by alcohol in a similar degree to that of Compound 2 | excellent inhibition of increase of GOT and GPT activities induced by CCl4 in a similar degree to that of Compound 2 | excellent inhibition of increase of GOT and GPT activities induced by CCl4 in a similar degree to that of Compound 2 |
| Cc1c(C)c2c(c(C)c1OC(=O)c1cccnc1)CCC(C)(CCOC(=O)c1cccnc1)O2 (stereo not drawn) [Compound 2, 3,4-dihydro-2-nicotinoyloxyethyl-2,5,7,8-tetramethyl-2H-benzopyran-6-yl nicotinate] | about two times higher cholesterol lowering activity than Nicomol | excellent inhibition of increase of OCT activity | excellent inhibition of increase of GOT and GPT activities | excellent inhibition of increase of GOT and GPT activities |
| Cc1c(C)c2c(c(C)c1O)CCC(C)(CCOC(=O)c1cccnc1)O2 (stereo not drawn) [Compound 1, 3,4-dihydro-2-nicotinoyloxyethyl-2,5,7,8-tetramethyl-2H-benzopyran-6-ol] | about two times higher cholesterol lowering activity than Nicomol | – | – | – |
